PubChem BioAssay AID1224830, NIAID | 2016
In all, the deposit lists about 18,000 reagents; below is a random part of them. Of all reagents, about 2,900 (16%) were called active. 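Calls are made per well; low scores hint the gene aids the LPS response, high scores that it dampens it.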 Repeated entries: four replicate wells of each siRNA pool.

- Assay: 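Genes whose knock-down alters the TNF-alpha reporter response to LPS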 (primary screen)
- System: human THP-1 monocytic leukaemia cells, TNF dual-luciferase reporter clone, PMA-differentiated to macrophage-like cells
- Knock-down reagent: siRNA pool against human genes, 50 nM
- Timing: LPS for 4 h, given about 3 days after siRNA transfection
- Challenge: bacterial LPS (TLR4 ligand), 10 ng/ml
- Measured: 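TNF firefly reporter luminescence divided by renilla, normalised to the plate median, then turned into a robust z-score for each replicate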
- Direction: TNF reporter robust z-score: higher = stronger TNF reporter response to LPS
- Hit rule: 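Each well counts as active if its z-score is over 2.8 or under -1.5; controls are left without a call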

ZNF488 (GeneID 118738) scored TNF reporter robust z-score -1.17; inactive. Silencing of ZNF488 (GeneID 118738) gave: TNF reporter robust z-score -1.23; inactive. ZNF488 (GeneID 118738) gave TNF reporter robust z-score -1.6; active. With knock-down of ZNF488 (GeneID 118738) the results were TNF reporter robust z-score -0.81; inactive. With knock-down of CCNA2 (GeneID 890), the record shows TNF reporter robust z-score -0.89; inactive. Silencing of CCNA2 (GeneID 890) resulted in: TNF reporter robust z-score -0.24; inactive.

Against CCNA2 (GeneID 890), the entry reads TNF reporter robust z-score 0.5; inactive. For CCNA2 (GeneID 890), the entry reads TNF reporter robust z-score 0.44; inactive.

Reformatted: results already given.
{"gene":"ZNF488 (GeneID 118738)","TNF reporter robust z-score":-1.23,"Call":"inactive"}
{"gene":"ZNF488 (GeneID 118738)","TNF reporter robust z-score":-1.6,"Call":"active"}

Next reagents follow:
After knock-down of TDP1 (GeneID 55775), the record shows TNF reporter robust z-score -1.26; inactive. Depletion of TDP1 (GeneID 55775) came out at: TNF reporter robust z-score -0.93; inactive. Knock-down of TDP1 (GeneID 55775) came out at: TNF reporter robust z-score -0.5; inactive. TDP1 (GeneID 55775) gave TNF reporter robust z-score -1.1; inactive. After knock-down of WRAP53 (GeneID 55135), the record shows TNF reporter robust z-score -0.88; inactive. Against WRAP53 (GeneID 55135), the values are TNF reporter robust z-score -0.6; inactive.

WRAP53 (GeneID 55135) showed TNF reporter robust z-score -0.98; inactive. After knock-down of WRAP53 (GeneID 55135), the screen gave TNF reporter robust z-score -0.58; inactive. HBS1L (GeneID 10767) showed TNF reporter robust z-score 1.61; inactive. Depletion of HBS1L (GeneID 10767) resulted in: TNF reporter robust z-score 1.7; inactive. Depletion of HBS1L (GeneID 10767) came out at: TNF reporter robust z-score -0.18; inactive. Depletion of HBS1L (GeneID 10767) came out at: TNF reporter robust z-score 3.92; active.
